Laboratory results taken from the supplement of paper PMC10849652.
The other results are listed elsewhere or left out.

Chains of the proteins cited; added tags and fusions are not shown. Lines headed by an entry give the natural chain unless they say otherwise; changes in a name come on top.
UniProt O75391: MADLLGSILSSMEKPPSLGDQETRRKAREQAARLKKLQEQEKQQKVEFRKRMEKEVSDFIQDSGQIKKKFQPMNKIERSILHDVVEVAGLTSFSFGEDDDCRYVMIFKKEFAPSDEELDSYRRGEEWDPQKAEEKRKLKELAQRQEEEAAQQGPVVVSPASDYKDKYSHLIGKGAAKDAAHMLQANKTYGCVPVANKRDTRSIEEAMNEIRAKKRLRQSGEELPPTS
UniProt P35610: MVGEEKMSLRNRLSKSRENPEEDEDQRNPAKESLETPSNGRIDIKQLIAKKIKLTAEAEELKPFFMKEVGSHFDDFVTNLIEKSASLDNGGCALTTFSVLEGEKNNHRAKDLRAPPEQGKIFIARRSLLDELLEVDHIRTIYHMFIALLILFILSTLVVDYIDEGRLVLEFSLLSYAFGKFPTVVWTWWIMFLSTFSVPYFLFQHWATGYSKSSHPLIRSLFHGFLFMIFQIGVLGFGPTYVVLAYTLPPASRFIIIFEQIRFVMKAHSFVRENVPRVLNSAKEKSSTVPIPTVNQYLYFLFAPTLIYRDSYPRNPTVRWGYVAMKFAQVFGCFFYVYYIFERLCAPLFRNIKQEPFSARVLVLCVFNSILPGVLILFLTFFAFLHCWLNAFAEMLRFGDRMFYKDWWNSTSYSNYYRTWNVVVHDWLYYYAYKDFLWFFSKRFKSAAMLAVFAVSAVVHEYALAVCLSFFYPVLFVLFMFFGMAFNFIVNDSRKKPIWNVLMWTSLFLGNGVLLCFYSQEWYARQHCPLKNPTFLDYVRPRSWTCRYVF
UniProt O14508, whole entry, looked up: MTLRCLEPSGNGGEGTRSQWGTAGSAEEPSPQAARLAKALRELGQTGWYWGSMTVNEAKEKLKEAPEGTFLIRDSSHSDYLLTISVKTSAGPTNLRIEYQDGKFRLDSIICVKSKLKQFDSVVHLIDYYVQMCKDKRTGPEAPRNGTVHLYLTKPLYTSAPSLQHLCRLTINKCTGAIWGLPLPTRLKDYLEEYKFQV
UniProt Q9Y5W9: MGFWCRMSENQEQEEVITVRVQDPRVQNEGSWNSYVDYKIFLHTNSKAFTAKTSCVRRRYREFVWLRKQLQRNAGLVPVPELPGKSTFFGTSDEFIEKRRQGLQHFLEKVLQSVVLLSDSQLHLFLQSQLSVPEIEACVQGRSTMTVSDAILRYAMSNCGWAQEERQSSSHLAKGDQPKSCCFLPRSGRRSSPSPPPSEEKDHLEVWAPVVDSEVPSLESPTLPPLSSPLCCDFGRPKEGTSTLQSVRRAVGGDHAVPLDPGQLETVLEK
UniProt Q13424: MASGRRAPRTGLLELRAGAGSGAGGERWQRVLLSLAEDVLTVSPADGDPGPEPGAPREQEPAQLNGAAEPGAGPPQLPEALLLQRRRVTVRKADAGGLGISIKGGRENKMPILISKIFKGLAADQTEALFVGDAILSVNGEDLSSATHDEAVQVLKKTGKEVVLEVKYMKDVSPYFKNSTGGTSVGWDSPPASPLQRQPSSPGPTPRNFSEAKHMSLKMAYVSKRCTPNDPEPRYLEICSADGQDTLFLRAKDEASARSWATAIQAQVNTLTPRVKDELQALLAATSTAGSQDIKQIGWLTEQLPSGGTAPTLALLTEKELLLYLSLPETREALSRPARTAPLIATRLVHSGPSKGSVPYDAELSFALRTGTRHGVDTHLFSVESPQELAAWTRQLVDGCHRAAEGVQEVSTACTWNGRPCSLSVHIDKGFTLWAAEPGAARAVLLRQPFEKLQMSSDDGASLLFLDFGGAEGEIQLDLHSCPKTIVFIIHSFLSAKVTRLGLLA
UniProt O95295: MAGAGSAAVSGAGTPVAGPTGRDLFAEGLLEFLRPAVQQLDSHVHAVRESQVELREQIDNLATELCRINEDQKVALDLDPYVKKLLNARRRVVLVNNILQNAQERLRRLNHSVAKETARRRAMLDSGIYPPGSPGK
UniProt Q15796, whole entry, looked up: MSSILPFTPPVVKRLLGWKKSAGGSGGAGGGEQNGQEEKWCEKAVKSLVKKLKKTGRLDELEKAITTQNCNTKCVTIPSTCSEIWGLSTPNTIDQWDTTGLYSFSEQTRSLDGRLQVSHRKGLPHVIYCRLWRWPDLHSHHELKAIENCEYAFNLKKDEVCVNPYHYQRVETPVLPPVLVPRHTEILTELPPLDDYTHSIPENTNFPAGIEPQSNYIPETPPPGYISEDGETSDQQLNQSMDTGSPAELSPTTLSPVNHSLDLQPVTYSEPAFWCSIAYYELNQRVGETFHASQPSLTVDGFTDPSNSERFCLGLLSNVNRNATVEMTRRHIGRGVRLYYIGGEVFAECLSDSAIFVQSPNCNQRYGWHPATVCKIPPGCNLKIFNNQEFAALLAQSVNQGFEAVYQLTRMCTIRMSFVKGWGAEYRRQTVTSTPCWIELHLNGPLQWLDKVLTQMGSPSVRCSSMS
UniProt Q96R06: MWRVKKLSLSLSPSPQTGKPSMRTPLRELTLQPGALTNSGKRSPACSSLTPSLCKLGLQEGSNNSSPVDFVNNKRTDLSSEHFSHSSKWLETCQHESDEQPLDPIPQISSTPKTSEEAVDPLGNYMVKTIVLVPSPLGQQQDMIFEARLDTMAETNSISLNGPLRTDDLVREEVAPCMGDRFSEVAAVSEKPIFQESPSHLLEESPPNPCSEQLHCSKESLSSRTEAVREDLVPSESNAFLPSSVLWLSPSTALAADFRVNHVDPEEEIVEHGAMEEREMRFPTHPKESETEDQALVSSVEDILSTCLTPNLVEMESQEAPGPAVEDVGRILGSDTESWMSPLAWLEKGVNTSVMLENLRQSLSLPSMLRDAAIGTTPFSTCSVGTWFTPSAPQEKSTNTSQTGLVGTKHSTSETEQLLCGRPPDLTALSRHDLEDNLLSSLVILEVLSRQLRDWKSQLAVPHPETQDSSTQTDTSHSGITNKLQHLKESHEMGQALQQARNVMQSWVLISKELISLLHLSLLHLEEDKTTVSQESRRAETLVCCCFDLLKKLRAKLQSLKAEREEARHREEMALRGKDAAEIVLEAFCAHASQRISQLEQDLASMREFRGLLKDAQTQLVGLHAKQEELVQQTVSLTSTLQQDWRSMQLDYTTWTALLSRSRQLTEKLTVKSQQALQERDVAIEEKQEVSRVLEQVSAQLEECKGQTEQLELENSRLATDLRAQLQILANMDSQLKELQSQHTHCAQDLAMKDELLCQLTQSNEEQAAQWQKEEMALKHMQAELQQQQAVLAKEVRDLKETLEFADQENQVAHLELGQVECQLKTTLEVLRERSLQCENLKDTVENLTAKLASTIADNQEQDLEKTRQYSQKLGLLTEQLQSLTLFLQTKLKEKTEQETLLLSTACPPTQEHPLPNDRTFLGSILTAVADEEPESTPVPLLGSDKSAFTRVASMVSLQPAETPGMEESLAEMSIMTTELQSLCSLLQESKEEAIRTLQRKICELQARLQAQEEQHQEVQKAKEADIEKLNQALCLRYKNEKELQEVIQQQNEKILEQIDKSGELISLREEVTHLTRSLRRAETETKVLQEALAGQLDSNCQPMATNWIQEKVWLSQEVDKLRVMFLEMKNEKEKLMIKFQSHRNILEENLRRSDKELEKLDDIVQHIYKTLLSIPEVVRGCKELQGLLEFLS
UniProt Q9H4I9: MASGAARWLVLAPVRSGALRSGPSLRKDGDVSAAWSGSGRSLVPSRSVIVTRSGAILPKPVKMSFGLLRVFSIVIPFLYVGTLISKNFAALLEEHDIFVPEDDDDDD
UniProt Q92540: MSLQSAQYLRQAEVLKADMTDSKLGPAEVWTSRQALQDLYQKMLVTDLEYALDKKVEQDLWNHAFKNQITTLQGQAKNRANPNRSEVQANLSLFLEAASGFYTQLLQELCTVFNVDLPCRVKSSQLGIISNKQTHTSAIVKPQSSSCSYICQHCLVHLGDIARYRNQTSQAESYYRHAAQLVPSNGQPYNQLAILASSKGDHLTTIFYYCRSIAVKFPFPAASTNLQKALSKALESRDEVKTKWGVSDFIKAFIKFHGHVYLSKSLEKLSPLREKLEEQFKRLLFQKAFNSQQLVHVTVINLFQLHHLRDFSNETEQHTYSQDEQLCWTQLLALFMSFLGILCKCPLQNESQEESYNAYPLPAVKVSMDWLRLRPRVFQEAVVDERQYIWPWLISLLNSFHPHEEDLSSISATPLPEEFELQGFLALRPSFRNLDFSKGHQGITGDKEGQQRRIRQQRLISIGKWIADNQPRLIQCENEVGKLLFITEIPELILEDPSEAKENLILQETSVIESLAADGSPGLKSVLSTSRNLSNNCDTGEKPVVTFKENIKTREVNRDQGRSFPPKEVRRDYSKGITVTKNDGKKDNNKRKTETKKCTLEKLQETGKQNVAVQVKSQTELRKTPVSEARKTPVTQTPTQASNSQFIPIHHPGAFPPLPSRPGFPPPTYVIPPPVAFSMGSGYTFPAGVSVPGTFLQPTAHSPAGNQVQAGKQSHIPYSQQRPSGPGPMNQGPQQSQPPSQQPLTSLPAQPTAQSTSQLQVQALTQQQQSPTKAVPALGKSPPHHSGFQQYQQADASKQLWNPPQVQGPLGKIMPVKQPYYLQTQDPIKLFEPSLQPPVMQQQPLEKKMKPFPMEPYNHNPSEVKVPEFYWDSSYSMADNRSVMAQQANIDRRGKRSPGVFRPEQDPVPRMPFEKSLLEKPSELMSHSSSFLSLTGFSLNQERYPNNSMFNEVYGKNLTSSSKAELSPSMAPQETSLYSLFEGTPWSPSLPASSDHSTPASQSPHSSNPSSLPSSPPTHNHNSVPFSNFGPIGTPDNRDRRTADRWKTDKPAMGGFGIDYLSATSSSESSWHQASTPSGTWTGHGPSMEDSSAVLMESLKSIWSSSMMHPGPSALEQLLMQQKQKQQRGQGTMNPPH
UniProt Q7Z3B0: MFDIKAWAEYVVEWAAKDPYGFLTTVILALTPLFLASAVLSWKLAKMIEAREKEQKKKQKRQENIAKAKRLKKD
UniProt P62318, whole entry, looked up: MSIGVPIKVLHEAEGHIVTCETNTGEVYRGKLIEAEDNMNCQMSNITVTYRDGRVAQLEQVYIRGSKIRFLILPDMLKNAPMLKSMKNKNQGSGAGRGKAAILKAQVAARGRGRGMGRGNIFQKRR
UniProt P28370, whole entry, looked up: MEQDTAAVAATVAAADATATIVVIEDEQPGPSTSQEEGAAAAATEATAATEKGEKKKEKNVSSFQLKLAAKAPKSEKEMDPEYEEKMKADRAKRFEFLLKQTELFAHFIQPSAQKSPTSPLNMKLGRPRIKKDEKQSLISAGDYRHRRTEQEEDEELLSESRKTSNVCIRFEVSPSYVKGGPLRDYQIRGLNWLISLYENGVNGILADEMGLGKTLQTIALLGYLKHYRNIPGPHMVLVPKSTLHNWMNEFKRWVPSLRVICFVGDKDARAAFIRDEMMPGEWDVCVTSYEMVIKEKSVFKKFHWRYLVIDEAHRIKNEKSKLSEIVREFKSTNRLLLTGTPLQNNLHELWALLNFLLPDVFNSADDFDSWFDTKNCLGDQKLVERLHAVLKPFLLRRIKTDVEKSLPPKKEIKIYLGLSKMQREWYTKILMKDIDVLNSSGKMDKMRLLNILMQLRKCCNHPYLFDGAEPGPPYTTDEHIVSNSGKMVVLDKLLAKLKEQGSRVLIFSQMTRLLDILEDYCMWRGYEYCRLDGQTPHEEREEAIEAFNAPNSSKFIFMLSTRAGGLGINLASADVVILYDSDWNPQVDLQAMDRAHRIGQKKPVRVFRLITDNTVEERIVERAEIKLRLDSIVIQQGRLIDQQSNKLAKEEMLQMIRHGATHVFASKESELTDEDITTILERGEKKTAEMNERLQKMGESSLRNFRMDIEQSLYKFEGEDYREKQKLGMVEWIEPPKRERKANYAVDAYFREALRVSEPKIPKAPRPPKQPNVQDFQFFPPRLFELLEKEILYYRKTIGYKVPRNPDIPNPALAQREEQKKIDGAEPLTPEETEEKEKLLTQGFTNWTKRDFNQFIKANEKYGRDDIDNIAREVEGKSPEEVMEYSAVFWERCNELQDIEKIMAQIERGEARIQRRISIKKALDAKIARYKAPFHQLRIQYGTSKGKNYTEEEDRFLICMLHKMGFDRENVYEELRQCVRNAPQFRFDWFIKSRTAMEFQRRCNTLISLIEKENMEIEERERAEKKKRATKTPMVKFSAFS
UniProt P08621, whole entry, looked up: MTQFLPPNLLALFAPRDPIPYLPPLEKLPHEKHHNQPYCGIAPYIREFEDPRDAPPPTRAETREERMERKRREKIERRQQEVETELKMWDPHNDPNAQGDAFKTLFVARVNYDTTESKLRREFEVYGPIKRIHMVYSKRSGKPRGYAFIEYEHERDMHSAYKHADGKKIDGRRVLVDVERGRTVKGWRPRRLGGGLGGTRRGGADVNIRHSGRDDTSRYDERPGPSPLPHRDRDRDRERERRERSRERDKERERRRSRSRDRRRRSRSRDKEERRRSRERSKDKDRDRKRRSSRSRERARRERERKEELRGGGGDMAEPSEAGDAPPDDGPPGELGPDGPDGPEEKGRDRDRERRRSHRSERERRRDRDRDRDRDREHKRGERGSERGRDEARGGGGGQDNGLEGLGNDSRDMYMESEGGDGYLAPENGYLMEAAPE

Key:
Assay in all cases: log2 fold change, soluble protein after heating vs DMSO (PISA); higher = thermal stabilisation; K562 cells, 10 uM, 30 min; active = over 0.2 and 3.5 SD of the protein, either way, in both replicates (recomputed)
[1] = compound: COC1=CC=C(C=C1)CN2C=CC3=C2C=C(C=C3)C(=O)NO
Summary of the method: (§1)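 Thermal stability values are relative to control samples and come from duplicates. They are expressed as log2 fold changes. For measurement, K562 cells (2×10^6 cells/mL) received 10 μM compound for 30 min, and aliquots were heated for 3 min over 48°C-58°C, pooled, and extracted at 4°C in PBS with 0.5% NP-40. Soluble protein, the supernatant after 21,000xg for 90 min, was quantified by TMTpro 16plex LC-MS/MS with equalised channel sums.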

filanesib = compound: CON(C)C(=O)N1N=C(c2cc(F)ccc2F)S[C@@]1(CCCN)c1ccccc1 [filanesib]
Summary of the method: as §1

zotarolimus = compound: CO[C@H]1C[C@@H]2CC[C@@H](C)[C@@](O)(O2)C(=O)C(=O)N2CCCC[C@H]2C(=O)O[C@H]([C@H](C)C[C@@H]2CC[C@H](n3cnnn3)[C@H](OC)C2)CC(=O)[C@H](C)/C=C(\C)[C@@H](O)[C@@H](OC)C(=O)[C@H](C)C[C@H](C)/C=C/C=C/C=C/1C [zotarolimus]
Summary of the method: as §1

idasanutlin = compound: COc1cc(C(=O)O)ccc1NC(=O)[C@@H]1N[C@@H](CC(C)(C)C)[C@](C#N)(c2ccc(Cl)cc2F)[C@H]1c1cccc(Cl)c1F [idasanutlin]
Summary of the method: as §1

alisertib = compound: COc1cc(Nc2ncc3c(n2)-c2ccc(Cl)cc2C(c2c(F)cccc2OC)=NC3)ccc1C(=O)O [alisertib]
Summary of the method: as §1

[2] = compound: COc1cc2nc(-c3cc(F)ccc3O)nc(N[C@@H]3CNC[C@H]3C(C)(C)O)c2cc1OC
Summary of the method: as §1

gefitinib = compound: COc1cc2ncnc(Nc3ccc(F)c(Cl)c3)c2cc1OCCCN1CCOCC1 [gefitinib]
Summary of the method: as §1

[3] = compound: COc1cccc2cc(-c3nc([C@H]4CC[C@H](C(=O)O)CC4)n4ncnc(N)c34)[nH]c12
Summary of the method: as §1

lapatinib = compound: CS(=O)(=O)CCNCc1ccc(-c2ccc3ncnc(Nc4ccc(OCc5cccc(F)c5)c(Cl)c4)c3c2)o1 [lapatinib]
Summary of the method: as §1

pictilisib = compound: CS(=O)(=O)N1CCN(Cc2cc3nc(-c4cccc5[nH]ncc45)nc(N4CCOCC4)c3s2)CC1 [pictilisib]
Summary of the method: as §1

Target	log2 fold change [1]	log2 fold change (filanesib)	log2 fold change (zotarolimus)	log2 fold change (idasanutlin)	log2 fold change (alisertib)	log2 fold change [2]	log2 fold change (gefitinib)	log2 fold change [3]	log2 fold change (lapatinib)	log2 fold change (pictilisib)
SPAG7 (UniProt O75391)	inactive: -0.027	inactive: 0.036	inactive: 0.019	inactive: -0.006	inactive: -0.05	inactive: 0.02	inactive: 0.08	inactive: 0.03	inactive: 0.003	inactive: -0.013
SNX15 (UniProt Q9NRS6)	inactive: -0.166	inactive: 0.151	inactive: -0.034	inactive: 0.108	inactive: -0.027	inactive: 0.019	inactive: 0.126	inactive: 0.032	inactive: -0.139	inactive: 0.018
SOAT1 (UniProt P35610)	inactive: 0	inactive: -0.1	active: 0.363	inactive: -0.184	inactive: -0.02	inactive: -0.118	inactive: 0.137	inactive: 0.045	inactive: 0.068	inactive: 0.067
SORD (UniProt Q00796)	inactive: -0.001	inactive: -0.001	inactive: -0.011	inactive: -0.004	inactive: -0.062	inactive: 0.033	inactive: 0.001	inactive: 0.038	inactive: -0.028	inactive: 0.066
SNX12 isoform 1 (UniProt Q9UMY4)	inactive: -0.029	inactive: -0.027	inactive: -0.007	inactive: 0.039	inactive: 0.005	inactive: -0.008	inactive: 0.035	inactive: 0.09	inactive: -0.006	inactive: -0.002
SPAG9 (UniProt O60271)	inactive: 0.005	inactive: -0.041	inactive: -0.011	inactive: 0	inactive: -0.034	inactive: -0.034	inactive: -0.01	inactive: -0.031	inactive: -0.026	inactive: 0.041
SOD1 (UniProt P00441)	inactive: -0.196	inactive: -0.012	inactive: 0.009	inactive: 0.009	inactive: 0	inactive: 0.015	inactive: -0.03	inactive: 0.127	inactive: -0.053	inactive: 0.088
SMARCC1 (UniProt Q92922)	inactive: -0.171	inactive: 0.066	inactive: 0.077	inactive: 0.038	inactive: -0.045	inactive: -0.036	inactive: 0.069	inactive: -0.182	inactive: -0.038	inactive: -0.023
SOCS2 (UniProt O14508)	inactive: -0.076	inactive: 0.031	inactive: -0.008	inactive: -0.064	inactive: 0.035	inactive: 0.074	inactive: -0.01	inactive: 0.044	inactive: -0.083	inactive: 0.063
SNX11 (UniProt Q9Y5W9)	inactive: 0.025	inactive: -0.128	inactive: 0.043	inactive: -0.008	inactive: -0.062	inactive: -0.15	inactive: -0.05	inactive: 0.038	inactive: 0.014	inactive: -0.173
SNTA1 (UniProt Q13424)	inactive: 0.003	inactive: 0.069	inactive: 0.005	inactive: -0.011	inactive: -0.093	inactive: 0.172	inactive: 0.096	inactive: 0.045	inactive: 0.151	inactive: 0.069
SMS (UniProt P52788)	inactive: 0.049	inactive: -0.038	inactive: 0.002	inactive: -0.041	inactive: -0.039	inactive: 0.028	inactive: 0.005	inactive: 0.06	inactive: -0.03	inactive: 0.037
SNAPIN (UniProt O95295)	inactive: -0.084	inactive: -0.04	inactive: 0.02	inactive: -0.01	inactive: -0.099	inactive: 0.023	inactive: 0.007	inactive: 0.08	inactive: -0.037	inactive: 0.007
SMAD2 (UniProt Q15796)	inactive: -0.011	inactive: 0.091	inactive: 0.043	inactive: 0	inactive: 0.032	inactive: -0.016	inactive: 0.117	inactive: -0.032	inactive: 0.043	inactive: 0.102
SNRNP200 (UniProt O75643)	inactive: -0.024	inactive: 0.122	inactive: -0.021	inactive: 0.038	inactive: -0.059	inactive: 0.091	inactive: -0.045	inactive: 0.002	inactive: 0.08	inactive: 0.073
SPAG5 (UniProt Q96R06)	inactive: -0.023	inactive: 0.3	inactive: 0.067	inactive: -0.002	inactive: -0.156	inactive: -0.146	inactive: -0.092	inactive: -0.174	inactive: 0.047	inactive: -0.086
SLK isoform 2 (UniProt Q9H2G2)	inactive: 0.001	inactive: 0.042	inactive: -0.007	inactive: -0.008	inactive: -0.045	inactive: -0.103	inactive: 0.025	inactive: -0.079	inactive: -0.193	active: 0.212
SNX9 (UniProt Q9Y5X1)	inactive: -0.002	inactive: -0.017	inactive: 0.004	inactive: -0.01	inactive: -0.013	inactive: 0.019	inactive: 0.038	inactive: -0.059	inactive: -0.034	inactive: -0.036
SMDT1 (UniProt Q9H4I9)	inactive: -0.053	active: -0.39	inactive: -0.014	inactive: -0.087	inactive: -0.058			inactive: 0.014		inactive: 0.095
SNRPA (UniProt P09012)	inactive: -0.03	inactive: 0.176	inactive: -0.036	inactive: 0.09	inactive: -0.123	inactive: 0.029	inactive: -0.043	inactive: 0.011	inactive: 0.007	inactive: 0.05
SOS1 (UniProt Q07889)	inactive: 0.094	inactive: 0.172		inactive: 0.027	inactive: -0.101		inactive: -0.146	inactive: 0.115		
SMG7 isoform 4 (UniProt Q92540)	inactive: -0.025	inactive: 0.06	inactive: 0.169			inactive: 0.242	inactive: -0.166		inactive: -0.077	inactive: -0.019
SMIM15 (UniProt Q7Z3B0)	inactive: -0.284	inactive: -0.289	inactive: 0.033	inactive: -0.175	inactive: 0.048		inactive: -0.004	inactive: -0.019		inactive: -0.181
SLC9A1 (UniProt P19634)	inactive: -0.03	inactive: 0.031		inactive: -0.037	inactive: 0.066	inactive: 0.061	inactive: -0.001	inactive: 0.157	inactive: 0.03	inactive: -0.004
SNRPD3 (UniProt P62318)	inactive: -0.169	inactive: 0.152	inactive: -0.051	inactive: 0.025	inactive: -0.132	inactive: 0.039	inactive: -0.019	inactive: 0.023	inactive: 0.028	inactive: 0.064
SMARCA1 (UniProt P28370)	inactive: -0.24	inactive: 0.019	inactive: 0.006	inactive: -0.178	inactive: 0.001	inactive: 0.118		inactive: -0.145	inactive: -0.06	inactive: -0.164
SNRNP70 (UniProt P08621)	inactive: -0.055	inactive: 0.377	inactive: -0.011	inactive: 0.163	inactive: -0.167	inactive: 0.16	inactive: -0.032	inactive: 0.005	inactive: 0.011	inactive: 0.05

Full records, quoted from the list. Order of values: log2 fold change [1]	log2 fold change (filanesib)	log2 fold change (zotarolimus)	log2 fold change (idasanutlin)	log2 fold change (alisertib)	log2 fold change [2]	log2 fold change (gefitinib)	log2 fold change [3]	log2 fold change (lapatinib)	log2 fold change (pictilisib)
SORD (UniProt Q00796) is listed as inactive: -0.001	inactive: -0.001	inactive: -0.011	inactive: -0.004	inactive: -0.062	inactive: 0.033	inactive: 0.001	inactive: 0.038	inactive: -0.028	inactive: 0.066
SNRNP70 (UniProt P08621) is listed as inactive: -0.055	inactive: 0.377	inactive: -0.011	inactive: 0.163	inactive: -0.167	inactive: 0.16	inactive: -0.032	inactive: 0.005	inactive: 0.011	inactive: 0.05
